Experimental findings from PMC5965893 are described below.

The target of assay [1] is full-length TrkC tagged with GFP (TrkC-FL-GFP). The experiment in a line: co-IP; transfected HEK293T cells lysed in 50 mM HEPES pH 7.6, 125 mM NaCl, 5 mM EDTA, 0.1% NP-40; immunoprecipitation with anti-GFP and protein G sepharose; western blot with anti-Flag.
The target of the next assay is TrkC-642-825-GFP. Nature of the assay: proximity ligation; DuoLink PLA on SHEP cells fixed in 4% PFA and permeabilised; pairs of primary antibodies (anti-GFP or anti-Flag for the TrkC constructs; pan-importin, anti-Hey1 or anti-MDM2 for endogenous proteins); red spots counted per cell.

No constants are given. Whether binding was seen depends on the method and setting. Binding seen in cells or lysates may run through a third protein. For part of these data: Binding can be weak; no strength is given. For part of these data: Sequences can lack the tags named with a protein.

B1: Hey1-Flag (protein, UniProt Q9WV93 1-299)
chain: MKRAHPDYSSSDSELDETIEVEKESADENGNLSSALCSMSPTTSSQVLARKRRRGIIEKRRRDRINNSLSELRRLVPSAFEKQGSAKLEKAEILQMTVDHLKMLHTAGGKGYFDAHALAMDYRSLGFRECLAEVARYLSIIEGLDASDPLLVRLVSHLNNYASQREAASGAHGGLGHIPWGSAFGHHPHIAHPLLLPQNGHGNAGTAASPTEPHHQGRLASAHPEAPALRAPPSGGLGPVLPVVTSASKLSPPLLSSVASLSAFPFSFSSFHLLSPSTPTQAANLGKPYRPWGTEIGAF
As for B1, the binding result in assay [1] was “binds”.

B2: endogenous Hey1 (protein, UniProt Q9Y5J3 1-304)
chain: MKRAHPEYSSSDSELDETIEVEKESADENGNLSSALGSMSPTTSSQILARKRRRGIIEKRRRDRINNSLSELRRLVPSAFEKQGSAKLEKAEILQMTVDHLKMLHTAGGKGYFDAHALAMDYRSLGFRECLAEVARYLSIIEGLDASDPLRVRLVSHLNNYASQREAASGAHAGLGHIPWGTVFGHHPHIAHPLLLPQNGHGNAGTTASPTEPHHQGRLGSAHPEAPALRAPPSGSLGPVLPVVTSASKLSPPLLSSVASLSAFPFSFGSFHLLSPNALSPSAPTQAANLGKPYRPWGTEIGAF
Regarding B2, the binding entry with TrkC-642-825-GFP is given as “no binding”.

B3: HeyL-Flag (protein, UniProt Q9DBX7 1-326)
chain: MKRPRAPSGSDGESDGPIDVGQENDLSQMARPLTTPSPSQMQARKKRRGIIEKRRRDRINSSLSELRRLVPTAFEKQGSSKLEKAEVLQMTVDHLKMLHASGGTGFFDARALAVDFRSIGFRECLTEVIRYLGVLEGPSSHADPVRIRLLSHLKSYAAEMEPSPTTTSALAFPVWPWSFLHSCPGLPSLNSQLAILGRVPGPVLPSISSPPYPISALRSAPVHRPAGTIPPTRRNLLPSRGVTSTQRAHLPERPAAPPPTALDARAARSIVPIPPCSPTTAPGAGKSDDNVSGSISSPCPSGPTGRPAGAVFYHSWVSEITEIGAF
B3: the binding result in assay [1] is “no binding”.
